Data on one compound can be found in publication doi:10.1101/2022.12.23.521429v4, “Structural perspective on the design of selective DYRK1B inhibitors” (biorxiv, 2025).

pIC50, pKd: −log10 of the molar value.

The target of experiment [1] is T1, DYRK1B kinase domain (78-442) (Homo sapiens, UniProt Q9Y463).
T1 construct: kinase domain 78-442, C-terminal TEV site and His-tag (ENLYFQ*GHHHHHH), His-tag cleaved by TEV; E. coli LOBSTR; Tyr273 autophosphorylated
Put plainly: isothermal titration calorimetry. As to conditions: read-out: binding affinity.

The target in experiment [2] is T1, DYRK1B kinase domain (78-442). Put plainly: ADP-Glo kinase activity assay. It is filed as biochemical.

As to `COc1cc(N2CCN(C)CC2)ccc1Nc1nccc(-c2cn(C)c3cnccc23)n1` [AZ191], the pKd in experiment [1] was 7.55. Besides, the pIC50 in experiment [2] is 7.18.
